In the experiment the target is T1, Frey1-3xFLAG (UniProt Q8CF31).
T1 sequence: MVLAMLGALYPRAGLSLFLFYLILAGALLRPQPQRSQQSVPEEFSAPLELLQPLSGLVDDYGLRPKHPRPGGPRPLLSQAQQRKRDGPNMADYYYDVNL
The experiment is described as follows: co-IP; Frey1-3xFLAG co-expressed with SPPL2c-myc variants in HEK293T cells (wild type or calnexin-deficient clone #9) and precipitated from DDM lysates with anti-FLAG beads; western blot. Background: Immunoblotting shows a protein as a band on a membrane.

These are yes or no findings as the source states them, for the method shown. Binding seen in cells or lysates may run through a third protein. Binding can be weak; no strength is given. Tags and fused reporters may be left off the sequences shown.

Take “SPPL2c Nt-SPP-myc (SPPL2c with the N-terminus of SPP) (mouse) (enzyme)”: the binding result is on record as “binds”.

The values are drawn from paper PMC11513070.
